# Measured values taken from the supplement of paper PMC12067093, “Discovery and optimisation of a covalent ligand for TRIM25 and its application to targeted protein ubiquitination” (Chemical Science, 2025).
# Chains of the proteins cited; added tags and fusions are not shown. Lines headed by an entry give the natural chain unless they say otherwise; changes in a name come on top.
# UniProt O60942: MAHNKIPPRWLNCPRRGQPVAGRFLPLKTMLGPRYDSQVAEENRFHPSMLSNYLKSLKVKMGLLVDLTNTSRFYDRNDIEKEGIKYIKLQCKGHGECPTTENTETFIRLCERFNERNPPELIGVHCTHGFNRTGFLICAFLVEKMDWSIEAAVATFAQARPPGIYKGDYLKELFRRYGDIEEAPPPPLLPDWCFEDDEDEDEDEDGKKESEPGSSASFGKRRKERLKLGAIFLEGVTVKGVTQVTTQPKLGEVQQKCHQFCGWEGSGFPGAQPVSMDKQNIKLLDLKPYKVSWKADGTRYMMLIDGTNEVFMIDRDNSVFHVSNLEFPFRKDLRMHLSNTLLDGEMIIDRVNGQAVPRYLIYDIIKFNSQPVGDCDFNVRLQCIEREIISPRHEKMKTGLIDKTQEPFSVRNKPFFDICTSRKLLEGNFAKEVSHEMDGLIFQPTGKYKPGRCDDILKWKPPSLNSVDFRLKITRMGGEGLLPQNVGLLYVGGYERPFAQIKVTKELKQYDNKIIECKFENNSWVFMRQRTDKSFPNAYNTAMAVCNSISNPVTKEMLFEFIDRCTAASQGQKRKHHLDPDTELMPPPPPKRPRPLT
# UniProt O75150, whole entry, looked up: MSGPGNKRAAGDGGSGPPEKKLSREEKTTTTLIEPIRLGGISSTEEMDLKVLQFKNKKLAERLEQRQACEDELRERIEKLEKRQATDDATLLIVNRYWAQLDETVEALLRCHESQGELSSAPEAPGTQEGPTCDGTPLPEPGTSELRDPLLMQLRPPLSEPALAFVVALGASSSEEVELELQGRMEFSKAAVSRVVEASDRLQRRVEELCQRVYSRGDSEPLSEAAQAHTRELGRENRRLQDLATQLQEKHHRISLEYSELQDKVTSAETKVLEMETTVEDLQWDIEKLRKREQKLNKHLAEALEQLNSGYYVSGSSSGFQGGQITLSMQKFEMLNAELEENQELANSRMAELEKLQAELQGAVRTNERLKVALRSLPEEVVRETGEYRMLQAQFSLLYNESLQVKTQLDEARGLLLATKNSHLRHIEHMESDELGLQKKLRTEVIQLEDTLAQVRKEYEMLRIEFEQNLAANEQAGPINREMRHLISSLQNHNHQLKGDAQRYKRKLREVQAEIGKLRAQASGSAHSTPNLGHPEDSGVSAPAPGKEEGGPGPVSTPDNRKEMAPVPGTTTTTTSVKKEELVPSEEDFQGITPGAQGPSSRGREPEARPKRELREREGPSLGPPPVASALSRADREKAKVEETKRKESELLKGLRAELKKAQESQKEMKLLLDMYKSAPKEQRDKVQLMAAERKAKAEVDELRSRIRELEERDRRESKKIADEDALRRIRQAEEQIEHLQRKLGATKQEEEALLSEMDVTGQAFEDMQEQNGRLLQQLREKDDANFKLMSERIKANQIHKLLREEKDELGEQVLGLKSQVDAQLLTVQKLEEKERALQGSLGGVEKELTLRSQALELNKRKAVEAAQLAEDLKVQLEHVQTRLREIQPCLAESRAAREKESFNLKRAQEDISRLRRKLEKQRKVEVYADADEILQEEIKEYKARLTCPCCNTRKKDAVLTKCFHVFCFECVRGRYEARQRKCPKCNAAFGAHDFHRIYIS
# UniProt P04843: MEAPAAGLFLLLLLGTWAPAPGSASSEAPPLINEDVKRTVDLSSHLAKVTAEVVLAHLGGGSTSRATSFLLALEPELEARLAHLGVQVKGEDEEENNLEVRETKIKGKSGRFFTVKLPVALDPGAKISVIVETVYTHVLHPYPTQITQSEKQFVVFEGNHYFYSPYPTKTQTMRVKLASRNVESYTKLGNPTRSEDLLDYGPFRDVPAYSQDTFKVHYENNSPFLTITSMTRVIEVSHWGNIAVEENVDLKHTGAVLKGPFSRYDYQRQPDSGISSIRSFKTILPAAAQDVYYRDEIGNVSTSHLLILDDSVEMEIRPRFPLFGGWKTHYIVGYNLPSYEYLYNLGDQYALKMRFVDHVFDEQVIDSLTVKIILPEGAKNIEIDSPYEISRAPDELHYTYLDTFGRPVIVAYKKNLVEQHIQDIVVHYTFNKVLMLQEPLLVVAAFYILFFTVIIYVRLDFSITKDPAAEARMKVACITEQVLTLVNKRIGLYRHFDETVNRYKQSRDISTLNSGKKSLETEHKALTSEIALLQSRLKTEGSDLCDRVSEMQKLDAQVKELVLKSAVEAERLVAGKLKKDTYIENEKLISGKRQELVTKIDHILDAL
# UniProt O75818: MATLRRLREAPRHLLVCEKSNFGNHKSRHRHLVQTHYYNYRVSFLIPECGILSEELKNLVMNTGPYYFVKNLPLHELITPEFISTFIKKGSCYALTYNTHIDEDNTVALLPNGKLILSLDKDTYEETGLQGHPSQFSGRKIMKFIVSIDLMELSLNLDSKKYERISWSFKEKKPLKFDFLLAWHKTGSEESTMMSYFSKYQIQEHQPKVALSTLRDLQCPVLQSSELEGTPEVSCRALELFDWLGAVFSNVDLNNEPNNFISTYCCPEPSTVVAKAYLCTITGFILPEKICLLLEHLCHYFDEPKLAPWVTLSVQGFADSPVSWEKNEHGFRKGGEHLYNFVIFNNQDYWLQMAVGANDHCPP
# UniProt Q13464: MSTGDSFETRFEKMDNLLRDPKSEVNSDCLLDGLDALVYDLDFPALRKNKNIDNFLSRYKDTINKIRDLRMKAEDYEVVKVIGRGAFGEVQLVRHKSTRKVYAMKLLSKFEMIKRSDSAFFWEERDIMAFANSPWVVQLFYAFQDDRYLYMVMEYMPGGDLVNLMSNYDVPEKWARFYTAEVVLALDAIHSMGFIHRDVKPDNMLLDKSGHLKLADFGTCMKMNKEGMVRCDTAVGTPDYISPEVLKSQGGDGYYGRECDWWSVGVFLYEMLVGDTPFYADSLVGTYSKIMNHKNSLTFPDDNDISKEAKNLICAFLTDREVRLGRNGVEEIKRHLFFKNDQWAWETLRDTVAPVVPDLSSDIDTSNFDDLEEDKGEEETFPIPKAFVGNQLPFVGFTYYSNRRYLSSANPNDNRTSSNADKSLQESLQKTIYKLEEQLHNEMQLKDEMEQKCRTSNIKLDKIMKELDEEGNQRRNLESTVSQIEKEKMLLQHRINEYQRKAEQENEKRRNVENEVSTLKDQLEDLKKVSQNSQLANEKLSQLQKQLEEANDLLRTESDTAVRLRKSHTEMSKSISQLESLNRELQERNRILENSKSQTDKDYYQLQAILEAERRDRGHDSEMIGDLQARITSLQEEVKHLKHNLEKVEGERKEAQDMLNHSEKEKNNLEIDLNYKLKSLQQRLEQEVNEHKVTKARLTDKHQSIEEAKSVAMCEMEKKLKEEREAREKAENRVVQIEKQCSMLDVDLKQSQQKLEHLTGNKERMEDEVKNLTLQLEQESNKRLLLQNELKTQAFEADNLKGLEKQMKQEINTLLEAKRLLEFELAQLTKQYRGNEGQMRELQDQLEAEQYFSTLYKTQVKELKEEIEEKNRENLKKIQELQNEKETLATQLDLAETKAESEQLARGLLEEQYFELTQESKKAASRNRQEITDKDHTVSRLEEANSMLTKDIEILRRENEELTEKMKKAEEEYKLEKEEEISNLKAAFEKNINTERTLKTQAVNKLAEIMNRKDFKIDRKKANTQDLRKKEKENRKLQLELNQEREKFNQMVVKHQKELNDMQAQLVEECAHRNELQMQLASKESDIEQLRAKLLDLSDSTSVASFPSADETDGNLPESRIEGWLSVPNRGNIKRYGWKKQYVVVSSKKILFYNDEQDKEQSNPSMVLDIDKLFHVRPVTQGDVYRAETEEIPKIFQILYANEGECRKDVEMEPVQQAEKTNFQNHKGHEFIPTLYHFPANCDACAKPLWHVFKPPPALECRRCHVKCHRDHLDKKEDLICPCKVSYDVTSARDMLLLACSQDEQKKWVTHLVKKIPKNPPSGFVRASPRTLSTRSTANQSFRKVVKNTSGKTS
# UniProt O75116: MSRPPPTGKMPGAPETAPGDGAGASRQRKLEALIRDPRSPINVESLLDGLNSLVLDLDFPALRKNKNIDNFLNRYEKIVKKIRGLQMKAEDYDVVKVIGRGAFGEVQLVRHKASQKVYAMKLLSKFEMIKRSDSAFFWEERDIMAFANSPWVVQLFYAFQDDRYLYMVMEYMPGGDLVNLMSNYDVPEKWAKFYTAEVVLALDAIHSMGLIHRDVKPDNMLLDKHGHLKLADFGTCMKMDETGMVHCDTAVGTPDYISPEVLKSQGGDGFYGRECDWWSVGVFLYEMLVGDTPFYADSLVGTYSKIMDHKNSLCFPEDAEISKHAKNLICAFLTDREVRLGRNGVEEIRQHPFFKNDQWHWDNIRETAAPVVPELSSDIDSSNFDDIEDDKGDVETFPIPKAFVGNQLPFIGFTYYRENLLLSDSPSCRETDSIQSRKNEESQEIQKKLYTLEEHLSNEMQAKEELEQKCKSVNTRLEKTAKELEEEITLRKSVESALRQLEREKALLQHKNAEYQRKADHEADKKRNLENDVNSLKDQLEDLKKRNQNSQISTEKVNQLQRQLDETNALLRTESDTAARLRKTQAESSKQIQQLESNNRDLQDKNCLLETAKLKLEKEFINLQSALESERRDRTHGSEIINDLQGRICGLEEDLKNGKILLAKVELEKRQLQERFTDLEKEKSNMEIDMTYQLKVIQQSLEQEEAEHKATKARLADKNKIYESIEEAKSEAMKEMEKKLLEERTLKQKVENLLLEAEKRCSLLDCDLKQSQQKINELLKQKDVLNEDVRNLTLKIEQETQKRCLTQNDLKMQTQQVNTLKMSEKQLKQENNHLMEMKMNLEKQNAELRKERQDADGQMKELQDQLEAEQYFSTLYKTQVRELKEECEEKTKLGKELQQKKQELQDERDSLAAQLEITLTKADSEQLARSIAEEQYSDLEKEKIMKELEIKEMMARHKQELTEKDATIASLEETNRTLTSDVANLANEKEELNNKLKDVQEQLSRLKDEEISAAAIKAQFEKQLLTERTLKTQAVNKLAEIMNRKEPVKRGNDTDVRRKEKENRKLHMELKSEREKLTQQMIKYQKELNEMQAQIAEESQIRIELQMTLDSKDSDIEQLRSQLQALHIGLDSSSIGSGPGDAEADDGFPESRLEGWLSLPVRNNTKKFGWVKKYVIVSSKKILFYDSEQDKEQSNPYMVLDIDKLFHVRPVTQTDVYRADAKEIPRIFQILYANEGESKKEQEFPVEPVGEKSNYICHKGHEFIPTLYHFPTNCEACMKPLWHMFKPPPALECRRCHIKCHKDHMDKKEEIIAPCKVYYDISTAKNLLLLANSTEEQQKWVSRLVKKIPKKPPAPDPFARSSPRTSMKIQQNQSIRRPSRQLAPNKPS
# UniProt Q8ND24: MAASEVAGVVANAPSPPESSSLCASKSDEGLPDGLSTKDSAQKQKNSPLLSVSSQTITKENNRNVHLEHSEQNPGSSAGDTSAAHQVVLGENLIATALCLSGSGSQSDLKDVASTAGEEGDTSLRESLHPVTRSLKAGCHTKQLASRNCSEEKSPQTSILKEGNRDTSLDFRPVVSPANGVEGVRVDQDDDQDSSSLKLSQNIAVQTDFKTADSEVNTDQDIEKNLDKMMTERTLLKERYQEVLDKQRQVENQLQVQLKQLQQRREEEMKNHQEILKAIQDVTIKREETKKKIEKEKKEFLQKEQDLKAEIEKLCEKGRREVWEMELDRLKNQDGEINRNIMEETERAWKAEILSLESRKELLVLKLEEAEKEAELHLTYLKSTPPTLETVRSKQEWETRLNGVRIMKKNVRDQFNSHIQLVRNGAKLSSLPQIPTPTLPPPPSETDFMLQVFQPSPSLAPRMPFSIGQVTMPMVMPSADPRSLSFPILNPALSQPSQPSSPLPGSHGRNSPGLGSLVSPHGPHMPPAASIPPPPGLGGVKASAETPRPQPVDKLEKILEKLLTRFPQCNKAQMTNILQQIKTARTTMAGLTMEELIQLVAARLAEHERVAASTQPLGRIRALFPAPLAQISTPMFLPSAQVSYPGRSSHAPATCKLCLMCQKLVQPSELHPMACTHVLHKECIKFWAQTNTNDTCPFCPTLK
# UniProt P78345: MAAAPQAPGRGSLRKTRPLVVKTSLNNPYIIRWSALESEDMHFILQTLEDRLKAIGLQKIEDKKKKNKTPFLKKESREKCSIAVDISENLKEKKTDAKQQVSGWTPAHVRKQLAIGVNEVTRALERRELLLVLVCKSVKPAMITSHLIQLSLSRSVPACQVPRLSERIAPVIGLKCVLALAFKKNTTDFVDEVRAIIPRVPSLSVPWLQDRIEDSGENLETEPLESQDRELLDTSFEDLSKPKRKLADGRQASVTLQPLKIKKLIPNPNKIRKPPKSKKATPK
# UniProt Q9BUL9: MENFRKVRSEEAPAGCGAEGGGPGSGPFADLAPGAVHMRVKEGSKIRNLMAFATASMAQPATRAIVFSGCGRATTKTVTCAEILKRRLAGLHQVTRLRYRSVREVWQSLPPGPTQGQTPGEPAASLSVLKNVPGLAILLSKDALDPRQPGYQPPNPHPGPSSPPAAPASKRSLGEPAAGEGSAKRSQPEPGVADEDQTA
# The list shows a part of the results.
# Compound: Cc1cc(ccc1-c1ccccc1)C(=O)N1CCCN(CC1)C(=O)CCl [compound 10]
# Experiment: probe-labelled cysteine peptide fold change vs DMSO (competition) (log2 fold change); higher = less target engagement (more negative = stronger competition)
# Settings: THP-1, incubation time: 4 h
# 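Also: competitive profiling in live THP-1 cells: cysteine peptides tagged with an iodoacetamide desthiobiotin (IA-DTB) probe, intensity after compound treatment relative to DMSO-treated cells.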
Target,probe-labelled cysteine peptide fold change (10 µM),probe-labelled cysteine peptide fold change (50 µM)
RNGTT_O60942_453_CDDILK (UniProt O60942),-0.242,-0.116
RNF40_O75150_890_LREIQPCLAESR (UniProt O75150),-0.026,-0.412
RNF220_Q5VTB9_359_EGSCMAEDDAVDIEHENNNRFEEYEWCGQK (UniProt Q5VTB9),-0.222,-0.552
RPL30_P62888_92_VCTLAIIDPGDSDIIR (UniProt P62888),0.194,-0.0287
RNH1_P13489_387_VLWLADCDVSDSSCSSLAATLLANHSLR (UniProt P13489),0.125,0.164
RPN1_P04843_545_LKTEGSDLCDR (UniProt P04843),-0.0348,-0.441
RNF25_Q96BH1_417_TRDCVR (UniProt Q96BH1),-0.364,-0.538
RPRD2_Q5VT52_903_ALLDSSENCDR (UniProt Q5VT52),-0.167,-0.249
RPL27A_P46776_144_SVGGACVLVA (UniProt P46776),-0.072,0.0697
RPP40_O75818_298_ICLLLEHLCHYFDEPK (UniProt O75818),0.149,0.403
RPL7L1_Q6DKI1_207_HFQEISWFLCPFHLSVAR (UniProt Q6DKI1),0.055,-0.0608
ROCK1_Q13464_1070_ELNDMQAQLVEECAHR (UniProt Q13464),-0.0113,-0.262
RPL4_P36578_125_RYAICSALAASALPALVMSK (UniProt P36578),-0.114,-0.618
RNH1_P13489_159_LQLEYCSLSAASCEPLASVLR (UniProt P13489),-0.063,-0.116
RPL12_P30050_17_CTGGEVGATSALAPK (UniProt P30050),-0.0136,0.0114
RPL7A_P62424_182_MGVPYCIIK (UniProt P62424),0.17,-0.0867
RNH1_P13489_248_LGDVGMAELCPGLLHPSSR (UniProt P13489),0.0552,-0.0858
RPL10_P27635_49_VDEFPLCGHMVSDEYEQLSSEALEAAR (UniProt P27635),0.0635,0.11
ROCK2_O75116_1293_PLWHMFKPPPALECR (UniProt O75116),-0.152,-0.362
RPE_Q96AT9_23_IGPSILNSDLANLGAECLR (UniProt Q96AT9),0.198,-0.0733
RNH1_P13489_273+277_GCGDLCR (UniProt P13489),-0.129,-0.472

Target,probe-labelled cysteine peptide fold change (10 µM),probe-labelled cysteine peptide fold change (50 µM)
RPL32_P62910_91_ELEVLLMCNK (UniProt P62910),-0.284,-0.15
RNH1_P13489_209+216_LESCGVTSDNCR (UniProt P13489),-0.308,-0.396
ROCK1_Q13464_1245_GHEFIPTLYHFPANCDACAK (UniProt Q13464),0.157,-0.00132
RPL10A_P62906_66_FSVCVLGDQQHCDEAK (UniProt P62906),0.0904,-0.354
RNF169_Q8NCN4_337_CVSAPDLTIEK (UniProt Q8NCN4),0.0213,-0.147
RPP30_P78346_87_LTIIVSDPSHCNVLR (UniProt P78346),-0.0425,-0.00471
RNH1_P13489_152+159_LQLEYCSLSAASCEPLASVLR (UniProt P13489),-0.155,-0.309
RNF31_Q96EP0_986_EVPNGLRDEACGK (UniProt Q96EP0),0.0489,-0.204
RNF41_Q9H4P4_106_LDNLMSHLSDCEHNPK (UniProt Q9H4P4),0.0417,-0.165
RNGTT_O60942_261_CHQFCGWEGSGFPGAQPVSMDK (UniProt O60942),-0.215,-0.34
RNF213_Q63HN8_3365_NCLTNTAK (UniProt Q63HN8),0.0859,-0.0404
RPL24_P83731_6_MKVELCSFSGYK (UniProt P83731),0.0015,-0.696
RPA1_P27694_200_WTICAR (UniProt P27694),0.0672,0.0446
RNGTT_O60942_419_NKPFFDICTSR (UniProt O60942),-0.423,-0.891
RPRD1B_Q9NQG5_234_TVDEACLLLAEYNGR (UniProt Q9NQG5),0.151,0.279
RPL11_P62913_21+25_KLCLNICVGESGDR (UniProt P62913),-0.0801,-0.334
RNF20_Q5VTR2_924_LTCPCCNMR (UniProt Q5VTR2),-0.0123,-0.0976
RPP40_O75818_49_VSFLIPECGILSEELK (UniProt O75818),0.0474,0.381
RNH1_P13489_38_LDDCGLTEAR (UniProt P13489),-0.188,-0.197
RNF213_Q63HN8_1677_EGGDVTELLAALCR (UniProt Q63HN8),0.184,0.709
RNF40_O75150_69_QACEDELR (UniProt O75150),-0.126,0.563

Target,probe-labelled cysteine peptide fold change (10 µM),probe-labelled cysteine peptide fold change (50 µM)
RNH1_P13489_75+85_SNELGDVGVHCVLQGLQTPSCKIQK (UniProt P13489),-0.193,-0.0667
RNF213_Q63HN8_1788_CLPAFLPDCLDLETLGHCLAHLAGMGGSPVER (UniProt Q63HN8),0.234,0.183
RNPEP_Q9H4A4_85_LDSHPCLEVTAAALRR (UniProt Q9H4A4),-0.158,-0.281
RPL17_P18621_57_QCVPFR (UniProt P18621),-0.201,0.118
RPL11_P62913_21_KLCLNICVGESGDR (UniProt P62913),-0.0264,-0.297
RPL37A_P61513_57_AVGIWHCGSCMK (UniProt P61513),-0.1,-0.185
RPAP1_Q9BWH6_185_GPSVGEVVPNVGPPEGAVTCETPTPR (UniProt Q9BWH6),0.902,1.33
RNMT_O43148_356_KGDYPLFGCK (UniProt O43148),0.107,0.29
RPF2_Q9H7B2_87_SDCSLFMFGSHNK (UniProt Q9H7B2),-0.0576,0.119
RPL7A_P62424_182_KMGVPYCIIK (UniProt P62424),0.0525,-0.555
RPA1_P27694_503_CDTEFPNFK (UniProt P27694),-0.123,-0.574
RNF31_Q96EP0_59_CNAHGEPR (UniProt Q96EP0),0.0328,-0.0157
RNF213_Q63HN8_4017_DPVCLPCDHVHCLR (UniProt Q63HN8),0.097,-0.132
RNF31_Q96EP0_817_EQLEATCPQCHQTFCVR (UniProt Q96EP0),0.153,0.179
RNF214_Q8ND24_23_AASEVAGVVANAPSPPESSSLCASK (UniProt Q8ND24),0.0223,-0.533
RPL3_P39023_114_TVFAEHISDECKR (UniProt P39023),-0.0657,-0.293
ROCK2_O75116_428_ENLLLSDSPSCR (UniProt O75116),-0.267,-0.605
RNF214_Q8ND24_675_LVQPSELHPMACTHVLHK (UniProt Q8ND24),0.0646,0.0132
ROCK2_O75116_1315_EEIIAPCK (UniProt O75116),0.0087,-0.203
RNF213_Q63HN8_310_THCQEAETK (UniProt Q63HN8),-0.101,-0.406
RPP38_P78345_176_CVLALAFK (UniProt P78345),0.104,-0.0388

Target,probe-labelled cysteine peptide fold change (10 µM),probe-labelled cysteine peptide fold change (50 µM)
RNF2_Q99496_72_FCADCIITALR (UniProt Q99496),0.0914,0.0209
RPIA_P49247_128_VKQENLNLVCIPTSFQAR (UniProt P49247),0.147,-0.115
RPL28_P46779_13_NCSSFLIK (UniProt P46779),-0.00784,-0.0542
RPL6_Q02878_44_GKPHCSR (UniProt Q02878),-0.129,-0.0323
RPA1_P27694_476_ENCMYQACPTQDCNK (UniProt P27694),0.0438,0.371
RNF31_Q96EP0_747_HITDMVCPACGRPDLTDDTQLLSYFSTLDIQLR (UniProt Q96EP0),0.212,0.0278
RNPEP_Q9H4A4_151_VGEGPGVCWLAPEQTAGKK (UniProt Q9H4A4),0.0798,-0.219
RNH1_P13489_305+313_LLCETLLEPGCQLESLWVK (UniProt P13489),-0.0785,-0.281
ROCK1_Q13464_1261_PLWHVFKPPPALECR (UniProt Q13464),-0.00575,0.121
RNF213_Q63HN8_418_WDSNICELHYTR (UniProt Q63HN8),-0.102,0.0152
RNF213_Q63HN8_1985_LCVGIVASER (UniProt Q63HN8),0.0552,0.195
RPP38_P78345_176_CVLALAFKK (UniProt P78345),-0.146,-0.407
RNF213_Q63HN8_1064_LCGTDEK (UniProt Q63HN8),0.0175,0.0992
RP2_O75695_147_FGCFQWYYPELAFQFK (UniProt O75695),0.168,0.271
RPL10A_P62906_164_VLCLAVAVGHVK (UniProt P62906),-0.0453,0.248
RPN1_P04843_477_VACITEQVLTLVNK (UniProt P04843),-0.0657,-0.431
RPP25_Q9BUL9_70_AIVFSGCGR (UniProt Q9BUL9),0.319,-0.143
RPL11_P62913_21+25_LCLNICVGESGDR (UniProt P62913),-0.012,-0.0902
RPL5_P46777_100_VGLTNYAAAYCTGLLLAR (UniProt P46777),0.129,0.123
